PubChem BioAssay AID1508588 | Peter MacCallum Cancer Centre, 2020

Purpose: 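Which gene losses make BRAF-mutant melanoma cells more responsive to vemurafenib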 (primary screen)
System: human WM266.4 melanoma cells (BRAF V600 mutant)
Reagent: siRNA pool against human genes, 40 nM
Duration: 96 h from transfection to read-out
Conditions: vemurafenib 300 nM (about IC25), added 48 h after transfection, for 48 h; comparison arm got DMSO vehicle only
Read-out: 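Cell gain (DAPI nuclei at end minus before drug, mean of two replicates) and medium lactate by absorbance per cell, both as ratio to non-targeting siRNA, also grouped into fold-change classes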
Reading the numbers: cell gain with vemurafenib: higher = more cell gain than with non-targeting siRNA; lactate per cell with vemurafenib: higher = more lactate made per cell
Hit rule: 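a knock-down counts as enhancing when its fold-change classes with vehicle and with vemurafenib, taken together, show a stronger drug effect on cell gain or lactate per cell; exact class pairs not stated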
Calls: active = enhances vemurafenib effect; inactive = no enhancement seen
The deposit covers about 18,000 reagents; this is an unselected part. 790 of all reagents (4.4%) were called active. 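Calls rest on a combination of fold-change classes in drug and vehicle arms, not all shown here.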

Target gene	cell gain with vemurafenib	lactate per cell with vemurafenib	outcome
ARF4 (ARF GTPase 4)	0.62	1.31	inactive
PCDHB4 (protocadherin beta 4)	1.07	0.93	inactive
ZNF767P (zinc finger family member 767, pseudogene)	0.5	1.8	inactive
LYLDT1 (lysosomal-lipid droplet tether 1)	0.46	1	inactive
CCN5 (cellular communication network factor 5)	1.02	0.68	inactive
KMT2E (lysine methyltransferase 2E (inactive))	1.17	0.92	inactive
FAM120AOS (family with sequence similarity 120 member A opposite strand)	0.4	2.04	inactive
PAGE4 (PAGE family member 4)	0.35	0.61	inactive
HDGFL2 (HDGF like 2)	0.49	1.1	inactive
ANKS6 (ankyrin repeat and sterile alpha motif domain containing 6)	0.75	0.68	inactive
PIK3R1 (phosphoinositide-3-kinase regulatory subunit 1)	1.29	1.12	inactive
NIBAN3 (niban apoptosis regulator 3)	0.72	0.58	inactive
STX10 (syntaxin 10)	0.52	1.79	inactive
BRWD3 (bromodomain and WD repeat domain containing 3)	1.01	0.75	inactive
OR8B2 (olfactory receptor family 8 subfamily B member 2)	0.69	0.78	inactive
MANEA (mannosidase endo-alpha)	0.82	0.72	inactive
ABCF2 (ATP binding cassette subfamily F member 2)	0.3	0.52	inactive
PSD3 (pleckstrin and Sec7 domain containing 3)	0.26	1.81	inactive
NDUFV1 (NADH:ubiquinone oxidoreductase core subunit V1)	0.7	1.18	inactive
SPATA4 (spermatogenesis associated 4)	1.09	0.99	inactive
TPM1 (tropomyosin 1)	0.7	0.9	inactive
CXCL8 (C-X-C motif chemokine ligand 8)	0.34	1.59	inactive
TTC32 (tetratricopeptide repeat domain 32)	0.33	0.84	inactive
BIK (BCL2 interacting killer)	0.59	0.6	inactive
VGLL3 (vestigial like family member 3)	0.51	0.94	inactive
LRAT (lecithin retinol acyltransferase)	0.73	0.55	inactive
AOX1 (aldehyde oxidase 1)	0.33	0.19	inactive
ABCA12 (ATP binding cassette subfamily A member 12)	0.75	0.43	inactive
SMTN (smoothelin)	0.05	1.85	inactive
BRSK2 (BR serine/threonine kinase 2)	0.7	0.94	inactive
SLC24A2	0.55	1.32	inactive
UBALD2 (UBA like domain containing 2)	0.43	1.54	inactive
OR9Q2 (olfactory receptor family 9 subfamily Q member 2)	0.49	0.78	inactive
TCF21 (transcription factor 21)	0.07	1.95	inactive
TWSG1 (twisted gastrulation BMP signaling modulator 1)	0.67	0.88	inactive
ZNF71 (zinc finger protein 71)	0.2	1.82	inactive
RGS11 (regulator of G protein signaling 11)	0.53	0.5	inactive
OR5B21 (olfactory receptor family 5 subfamily B member 21)	0.65	1.33	inactive
PEX3 (peroxisomal biogenesis factor 3)	0.43	1.78	inactive
MRPS27 (mitochondrial ribosomal protein S27)	0.38	0.76	inactive
TRIM44 (TRIM family member 44)	0.75	0.93	inactive
TRPC4AP	0.8	0.8	inactive
MXI1 (MAX interactor 1, dimerization protein)	0.76	1.17	inactive
SYCP2 (synaptonemal complex protein 2)	0.75	0.75	inactive
PRF1 (perforin 1)	0.96	1.18	inactive
XPO7 (exportin 7)	0.49	0.8	inactive
MYO1B (myosin IB)	0.67	0.89	inactive
AGAP3 (ArfGAP with GTPase domain, ankyrin repeat and PH domain 3)	0.52	1.05	inactive
RPH3AL (rabphilin 3A like (without C2 domains))	0.94	1.16	inactive
NUDT5 (nudix hydrolase 5)	0.72	1.07	inactive
CTSO (cathepsin O)	0.81	0.57	inactive
LRRN4 (leucine rich repeat neuronal 4)	0.9	0.34	active
CXCR3 (C-X-C motif chemokine receptor 3)	0.4	1.62	inactive
MT2A (metallothionein 2A)	1.23	0.57	inactive
RAB11B (RAB11B, member RAS oncogene family)	0.52	0.74	inactive
CYTH4 (cytohesin 4)	0.77	1.14	inactive
RNF157 (ring finger protein 157)	1.01	0.44	inactive
GINS4 (GINS complex subunit 4)	0.28	0.82	inactive
ATG10 (autophagy related 10)	0.73	1.09	inactive
SPP2 (secreted phosphoprotein 2)	0.74	0.48	active
CPSF6 (cleavage and polyadenylation specific factor 6)	0.77	1.49	inactive
CALHM4 (calcium homeostasis modulator family member 4)	0.7	0.77	inactive
PPIL1 (peptidylprolyl isomerase like 1)	0.44	2	inactive
CARS1 (cysteinyl-tRNA synthetase 1)	0.57	0.7	inactive
SPANXN4 (SPANX family member N4)	0.29	0.37	inactive
TNFSF13B (TNF superfamily member 13b)	0.47	1.06	inactive
CFAP298 (cilia and flagella associated protein 298)	0.48	0.42	inactive
IFITM3 (interferon induced transmembrane protein 3)	0.35	1.1	inactive
IL1RAPL2 (interleukin 1 receptor accessory protein like 2)	0.91	0.74	inactive
MCCC2 (methylcrotonyl-CoA carboxylase subunit 2)	0.57	0.57	inactive
SMR3B (submaxillary gland androgen regulated protein 3B)	0.84	0.98	inactive
PEG10 (paternally expressed 10)	0.75	1.42	inactive
PROK2 (prokineticin 2)	0.45	0.7	inactive
CEP70 (centrosomal protein 70)	0.27	1.27	inactive
CYB5D1 (cytochrome b5 domain containing 1)	0.87	1.08	inactive
KLK9 (kallikrein related peptidase 9)	0.45	1.2	inactive
C1QTNF5 (C1q and TNF related 5)	0.64	1.6	inactive
SLC2A3	0.63	0.32	inactive
IL4R (interleukin 4 receptor)	0.56	0.52	inactive
MED26 (mediator complex subunit 26)	0.14	2.03	inactive
FOXO1 (forkhead box O1)	0.78	1.22	inactive
MUC20 (mucin 20, cell surface associated)	0.59	1.15	inactive
DDHD2 (DDHD domain containing 2)	0.57	1.65	inactive
ASTN1 (astrotactin 1)	1.39	0.47	inactive

Laid out differently: 4 of the entries above
| Target gene | cell gain with vemurafenib | lactate per cell with vemurafenib | outcome |
| --- | --- | --- | --- |
| MCCC2 (methylcrotonyl-CoA carboxylase subunit 2) | 0.57 | 0.57 | inactive |
| SMR3B (submaxillary gland androgen regulated protein 3B) | 0.84 | 0.98 | inactive |
| PEG10 (paternally expressed 10) | 0.75 | 1.42 | inactive |
| PROK2 (prokineticin 2) | 0.45 | 0.7 | inactive |
